# Test system: chronic CS-exposed AKR/J mice
# Experiment: Morphometric analysis of airspace dimension and airway attachments in chronic CS-induced emphysema model
# Assay type: in vivo
# Settings: room air-exposed mice, 2 months treatment, compared with untreated controls
# Method: Six- to eight-week-old AKR/J male mice were divided into 3 groups. […] CS exposure was carried out (2 hours per day, 5 days per week) by burning 2R4F reference cigarettes (University of Kentucky, […], Ky., USA) using a smoking machine (Model TE-10; Teague Enterprises) for 6 to 7 weeks. The average concentration of total suspended particulates and carbon monoxide was 90 mg/m and 350 ppm, respectively, which was monitored on a routine basis.
# […] Panselective TGF-β-neutralizing antibody (R&D Systems) was administered by intraperitoneal injection according to published protocol (70). Isotype-matched control antibody (R&D Systems) was administered to control mice as described above.
# Three to five mice of each genotype were studied at the noted ages. For histologic and morphometric analyses, mouse lungs were inflated at a pressure of 25 cm H2O and fixed with 4% PFA in low molecular weight agarose. […]
# Mean linear intercept measurements were performed on H&E-stained sections taken at intervals throughout both lungs. […] Mean chord lengths and mean linear intercepts were assessed by automated morphometry with a macro-operation performed by Metamorph Imaging Software (Universal Imaging, Molecular Devices). Mean airway thickness was measured directly using microscope-captured images at ×40 magnification. […]
smiles,measurement,setting,value
CCCCc1nc(Cl)c(CO)n1Cc1ccc(-c2ccccc2-c2nn[nH]n2)cc1 [losartan],airspace caliber or histology in RA-exposed mice,,no change in airspace caliber or histology
same,airspace caliber or histology in RA-exposed mice,listed as Losartan,does not affect airspace dimension
